Some of the results follow.
Assays:
Experiment in all cases: log2 fold change, soluble protein after heating vs DMSO (PISA); higher = thermal stabilisation; K562 lysate, 10 uM; active = over 0.2 and 3.5 SD of the protein, either way, in both replicates (recomputed)
vemurafenib = compound: CCCS(=O)(=O)Nc1ccc(F)c(C(=O)c2c[nH]c3ncc(-c4ccc(Cl)cc4)cc23)c1F [vemurafenib]
In short: (§1)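 Dounce homogenisation of K562 pellets in PBS pH 7.4 with 1 mM MgCl2 produced a crude extract, used at 1 mg/mL protein. Exposure to 10 μM compound lasted 30 min, and aliquots were then heated for 3 min across 48°C-58°C, pooled and brought to 0.5% NP-40 at 4°C. The supernatant after 21,000xg for 90 min was quantified by TMTpro 16plex LC-MS/MS with channel sums equalised. Duplicate values are given as log-two fold change in thermal stability relative to solvent controls.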

Chains of the proteins cited; added tags and fusions are not shown. Lines headed by an entry give the natural chain unless they say otherwise; changes in a name come on top.
UniProt P02008: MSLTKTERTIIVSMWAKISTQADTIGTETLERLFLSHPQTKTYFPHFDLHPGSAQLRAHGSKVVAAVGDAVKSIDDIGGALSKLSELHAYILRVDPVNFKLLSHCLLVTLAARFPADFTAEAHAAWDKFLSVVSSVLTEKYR
UniProt Q8NEC7: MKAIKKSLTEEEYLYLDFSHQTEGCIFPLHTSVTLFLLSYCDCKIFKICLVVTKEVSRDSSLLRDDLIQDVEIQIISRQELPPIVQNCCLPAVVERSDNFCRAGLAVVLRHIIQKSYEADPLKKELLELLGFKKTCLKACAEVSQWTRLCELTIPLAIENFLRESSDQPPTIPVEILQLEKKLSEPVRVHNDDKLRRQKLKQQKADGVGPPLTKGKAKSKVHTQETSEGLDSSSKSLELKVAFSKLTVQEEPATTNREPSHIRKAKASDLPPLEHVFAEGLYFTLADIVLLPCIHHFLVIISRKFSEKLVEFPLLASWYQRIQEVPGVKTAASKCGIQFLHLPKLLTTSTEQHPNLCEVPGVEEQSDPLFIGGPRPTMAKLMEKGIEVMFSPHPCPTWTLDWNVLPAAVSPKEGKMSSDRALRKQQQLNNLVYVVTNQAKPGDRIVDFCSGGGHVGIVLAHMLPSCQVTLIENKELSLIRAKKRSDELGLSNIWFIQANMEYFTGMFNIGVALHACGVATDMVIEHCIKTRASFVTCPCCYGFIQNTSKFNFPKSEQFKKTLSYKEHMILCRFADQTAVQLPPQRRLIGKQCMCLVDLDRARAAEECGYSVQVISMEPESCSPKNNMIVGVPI
UniProt Q969Y2: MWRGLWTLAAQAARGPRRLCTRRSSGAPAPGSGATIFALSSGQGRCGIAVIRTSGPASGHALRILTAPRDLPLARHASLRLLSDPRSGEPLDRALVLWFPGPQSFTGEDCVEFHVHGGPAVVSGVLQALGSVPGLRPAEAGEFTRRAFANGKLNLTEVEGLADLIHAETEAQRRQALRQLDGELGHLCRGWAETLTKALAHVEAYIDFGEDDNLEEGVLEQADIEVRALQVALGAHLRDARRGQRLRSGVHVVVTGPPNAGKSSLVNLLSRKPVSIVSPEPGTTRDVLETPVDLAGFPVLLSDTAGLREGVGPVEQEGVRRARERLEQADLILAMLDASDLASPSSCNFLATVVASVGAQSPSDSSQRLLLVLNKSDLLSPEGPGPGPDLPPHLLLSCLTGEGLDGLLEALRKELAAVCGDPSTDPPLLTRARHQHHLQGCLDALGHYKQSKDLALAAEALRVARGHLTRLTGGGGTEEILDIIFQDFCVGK
UniProt P53701: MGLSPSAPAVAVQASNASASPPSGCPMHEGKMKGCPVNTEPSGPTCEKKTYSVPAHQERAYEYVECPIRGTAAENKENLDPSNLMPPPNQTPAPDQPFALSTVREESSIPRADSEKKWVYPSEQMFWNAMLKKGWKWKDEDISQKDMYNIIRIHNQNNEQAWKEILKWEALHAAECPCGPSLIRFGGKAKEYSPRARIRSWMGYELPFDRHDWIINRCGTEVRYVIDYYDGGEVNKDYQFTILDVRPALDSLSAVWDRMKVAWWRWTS
UniProt P02100: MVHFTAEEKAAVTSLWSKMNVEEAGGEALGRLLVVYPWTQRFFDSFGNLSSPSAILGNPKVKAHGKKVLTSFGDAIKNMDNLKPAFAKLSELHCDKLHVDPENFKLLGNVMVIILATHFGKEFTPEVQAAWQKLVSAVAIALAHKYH
UniProt Q9H6D7: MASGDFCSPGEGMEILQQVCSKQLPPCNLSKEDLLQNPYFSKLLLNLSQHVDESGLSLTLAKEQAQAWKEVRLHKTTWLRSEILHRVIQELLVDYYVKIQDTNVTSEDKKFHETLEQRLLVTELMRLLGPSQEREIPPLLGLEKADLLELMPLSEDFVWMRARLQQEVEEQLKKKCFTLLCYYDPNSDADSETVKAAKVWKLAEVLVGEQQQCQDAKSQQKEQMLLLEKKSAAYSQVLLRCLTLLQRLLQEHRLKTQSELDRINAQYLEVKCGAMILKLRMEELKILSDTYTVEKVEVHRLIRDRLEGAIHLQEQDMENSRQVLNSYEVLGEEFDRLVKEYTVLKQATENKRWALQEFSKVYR
UniProt O00165, whole entry, looked up: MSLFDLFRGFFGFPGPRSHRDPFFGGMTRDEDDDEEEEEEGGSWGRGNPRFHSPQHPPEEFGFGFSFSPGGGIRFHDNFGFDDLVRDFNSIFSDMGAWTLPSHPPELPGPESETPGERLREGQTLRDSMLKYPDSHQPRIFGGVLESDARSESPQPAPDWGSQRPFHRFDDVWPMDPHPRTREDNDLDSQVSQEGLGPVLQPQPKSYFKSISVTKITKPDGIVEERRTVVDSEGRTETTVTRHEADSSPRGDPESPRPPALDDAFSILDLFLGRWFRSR
UniProt Q13889: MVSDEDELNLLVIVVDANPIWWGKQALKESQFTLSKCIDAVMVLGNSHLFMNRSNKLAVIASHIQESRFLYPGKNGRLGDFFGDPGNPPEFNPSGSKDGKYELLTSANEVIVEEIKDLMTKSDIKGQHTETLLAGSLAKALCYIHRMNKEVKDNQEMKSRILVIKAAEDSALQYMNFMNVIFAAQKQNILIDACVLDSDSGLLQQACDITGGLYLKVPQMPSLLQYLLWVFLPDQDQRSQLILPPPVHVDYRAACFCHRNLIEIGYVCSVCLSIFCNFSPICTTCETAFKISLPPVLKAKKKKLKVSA

[1] = compound: CCCS(=O)(=O)Nc1ccc(F)c(C(=O)c2c[nH]c3ncc(Cl)cc23)c1F
In short: as §1

barasertib = compound: CCN(CCCOc1ccc2c(Nc3cc(CC(=O)Nc4cccc(F)c4)[nH]n3)ncnc2c1)CCOP(=O)(O)O [barasertib]
In short: as §1

[2] = compound: CC[C@@H]1C(=O)N(C)c2cnc(Nc3ccc(C(=O)NC4CCN(C)CC4)cc3OC)nc2N1C1CCCC1
In short: as §1

volasertib = compound: CC[C@@H]1C(=O)N(C)c2cnc(Nc3ccc(C(=O)N[C@H]4CC[C@H](N5CCN(CC6CC6)CC5)CC4)cc3OC)nc2N1C(C)C [volasertib]
In short: as §1

[3] = compound: CCn1c(C(=O)N(C2CC2)C2CC2)cc2c3c(ncn3C)c(Nc3cc(C)n(C)n3)nc21
In short: as §1

[4] = compound: CCn1cc(-c2ccnc3[nH]c(-c4cccc(CN(C)C)c4)cc23)c(-c2ccc(NC(=O)N(C)C)cc2)n1
In short: as §1

[5] = compound: CN1CCC(CNc2ccc3ncc(-c4cccc(OC(F)(F)F)c4)n3n2)CC1
In short: as §1

saracatinib = compound: CN1CCN(CCOc2cc(OC3CCOCC3)c3c(Nc4c(Cl)ccc5c4OCO5)ncnc3c2)CC1 [saracatinib]
In short: as §1

sotrastaurin = compound: CN1CCN(c2nc(C3=C(c4c[nH]c5ccccc45)C(=O)NC3=O)c3ccccc3n2)CC1 [sotrastaurin]
In short: as §1

alvocidib = compound: CN1CC[C@H](c2c(O)cc(O)c3c(=O)cc(-c4ccccc4Cl)oc23)[C@H](O)C1 [alvocidib]
In short: as §1

Tubastatin A = compound: CN1CCc2c(c3ccccc3n2Cc2ccc(C(=O)NO)cc2)C1 [Tubastatin A]
In short: as §1

[6] = compound: CNC(=O)C1=CC=CC=C1NC2=NC(=NC=C2Cl)NC3=C(C=C(C=C3)N4CCOCC4)OC
In short: as §1

defactinib = compound: CNC(=O)c1ccc(Nc2ncc(C(F)(F)F)c(NCc3nccnc3N(C)S(C)(=O)=O)n2)cc1 [defactinib]
In short: as §1

[7] = compound: CNc1nc(-c2ccc3c(N)n[nH]c3c2)cc(N2C[C@@H](C(=O)NC3CCCCC3)CC[C@H]2C)n1
In short: as §1

encorafenib = compound: COC(=O)N[C@@H](C)CNc1nccc(-c2cn(C(C)C)nc2-c2cc(Cl)cc(NS(C)(=O)=O)c2F)n1 [encorafenib]
In short: as §1

[8] = compound: COC(=O)[C@H](CCSC)NC(=O)C1=C(C=C(C=C1)NC[C@H](CS)N)C2=CC=CC=C2
In short: as §1

alisertib = compound: COc1cc(Nc2ncc3c(n2)-c2ccc(Cl)cc2C(c2c(F)cccc2OC)=NC3)ccc1C(=O)O [alisertib]
In short: as §1

[9] = compound: COc1cc2nc(-c3cc(F)ccc3O)nc(N[C@@H]3CNC[C@H]3C(C)(C)O)c2cc1OC
In short: as §1

gefitinib = compound: COc1cc2ncnc(Nc3ccc(F)c(Cl)c3)c2cc1OCCCN1CCOCC1 [gefitinib]
In short: as §1

Measured: log2 fold change

HBZ (UniProt P02008)
inactive: vemurafenib 0 | [1] 0 | barasertib 0.025 | [2] -0.007 | volasertib 0.064 | [3] 0.014 | [4] -0.019 | [5] -0.076 | saracatinib -0.007 | sotrastaurin -0.036 | alvocidib 0.087 | Tubastatin A 0.059 | [6] 0.04 | defactinib 0.107 | [7] 0.016 | encorafenib 0.042 | [8] -0.029 | alisertib 0.011 | [9] -0.039 | gefitinib -0.18

GSTCD (UniProt Q8NEC7)
inactive: vemurafenib 0.028 | [1] 0.057 | barasertib -0.039 | [2] -0.018 | volasertib -0.05 | [3] 0.011 | [4] -0.055 | [5] -0.015 | saracatinib 0.034 | sotrastaurin 0.037 | alvocidib 0.03 | Tubastatin A -0.13 | [6] 0.055 | defactinib -0.002 | [7] -0.013 | encorafenib 0.052 | [8] 0.138 | alisertib -0.068 | [9] 0.002 | gefitinib 0

GTPBP3 isoform 2 (UniProt Q969Y2)
inactive: vemurafenib -0.115 | [1] 0.035 | barasertib 0.088 | [2] -0.283 | volasertib 0.073 | [3] 0.026 | [4] -0.048 | [5] -0.055 | saracatinib 0.002 | sotrastaurin 0.059 | alvocidib 0.087 | Tubastatin A -0.084 | [6] -0.008 | defactinib 0.006 | [7] 0.089 | encorafenib 0.124 | [8] 0.347 | alisertib -0.038 | [9] -0.048 | gefitinib -0.014

HCCS (UniProt P53701)
inactive: vemurafenib 0.054 | [1] 0.036 | barasertib -0.014 | [2] 0.02 | volasertib 0.013 | [3] 0.01 | [4] -0.027 | [5] 0.002 | saracatinib 0.018 | sotrastaurin -0.023 | alvocidib 0.001 | Tubastatin A -0.032 | [6] -0.033 | defactinib -0.015 | [7] -0.017 | encorafenib -0.02 | [8] 0 | alisertib 0.031 | [9] -0.045 | gefitinib 0.04

HBE1 (UniProt P02100)
inactive: vemurafenib 0.011 | [1] -0.026 | barasertib 0.032 | [2] 0.007 | volasertib 0.081 | [3] 0.003 | [4] -0.031 | [5] -0.016 | saracatinib 0.009 | sotrastaurin -0.019 | alvocidib 0.067 | Tubastatin A 0.084 | [6] 0.026 | defactinib 0.091 | [7] 0.022 | encorafenib 0.004 | [8] -0.089 | alisertib 0.02 | [9] -0.017 | gefitinib -0.145

HAUS4 (UniProt Q9H6D7)
inactive: vemurafenib 0.007 | [1] 0.044 | barasertib 0.107 | [2] -0.047 | volasertib -0.039 | [3] 0.015 | [4] -0.045 | [5] -0.04 | saracatinib 0.022 | sotrastaurin 0.02 | alvocidib 0.007 | Tubastatin A -0.116 | [6] 0.007 | defactinib 0.014 | [7] -0.005 | encorafenib 0.002 | [8] 0.012 | alisertib 0.008 | [9] -0.017 | gefitinib -0.022

2 consecutive records out of the list so far, quoted:
GSTCD (UniProt Q8NEC7)
inactive: vemurafenib 0.028 | [1] 0.057 | barasertib -0.039 | [2] -0.018 | volasertib -0.05 | [3] 0.011 | [4] -0.055 | [5] -0.015 | saracatinib 0.034 | sotrastaurin 0.037 | alvocidib 0.03 | Tubastatin A -0.13 | [6] 0.055 | defactinib -0.002 | [7] -0.013 | encorafenib 0.052 | [8] 0.138 | alisertib -0.068 | [9] 0.002 | gefitinib 0

GTPBP3 isoform 2 (UniProt Q969Y2)
inactive: vemurafenib -0.115 | [1] 0.035 | barasertib 0.088 | [2] -0.283 | volasertib 0.073 | [3] 0.026 | [4] -0.048 | [5] -0.055 | saracatinib 0.002 | sotrastaurin 0.059 | alvocidib 0.087 | Tubastatin A -0.084 | [6] -0.008 | defactinib 0.006 | [7] 0.089 | encorafenib 0.124 | [8] 0.347 | alisertib -0.038 | [9] -0.048 | gefitinib -0.014

The list continues.

HAX1 (UniProt O00165)
inactive: vemurafenib -0.051 | [1] 0.037 | barasertib 0.067 | [2] -0.018 | volasertib 0.022 | [3] 0.032 | [4] 0.03 | [5] -0.053 | saracatinib 0.013 | sotrastaurin 0.029 | alvocidib 0.019 | Tubastatin A -0.103 | [6] 0.074 | defactinib -0.002 | [7] -0.022 | encorafenib 0.027 | [8] 0.128 | alisertib 0.008 | [9] -0.031 | gefitinib -0.014

GTF2H3 (UniProt Q13889)
inactive: vemurafenib 0.005 | [1] -0.001 | barasertib 0.006 | [2] -0.015 | volasertib -0.036 | [3] -0.031 | [4] -0.076 | [5] 0.032 | saracatinib -0.023 | sotrastaurin 0.019 | alvocidib 0.028 | Tubastatin A -0.011 | [6] 0 | defactinib 0.001 | [7] 0.07 | encorafenib 0.071 | [8] -0.115 | alisertib 0.022 | [9] 0.008 | gefitinib -0.075

— the supplement of paper PMC10849652
